Measurements reported in patent publication US20030162221A1.
No constants are given. Whether binding was seen depends on the method and setting. Binding seen in cells or lysates may run through a third protein. Some binding calls cover weakened binding; strength is not graded here. For part of these data: Tags and fused reporters may be left off the sequences shown.

Amino acid sequences for entries named in this document (tags omitted). Residues count along the entry.
UniProt P00546, residues 2-298: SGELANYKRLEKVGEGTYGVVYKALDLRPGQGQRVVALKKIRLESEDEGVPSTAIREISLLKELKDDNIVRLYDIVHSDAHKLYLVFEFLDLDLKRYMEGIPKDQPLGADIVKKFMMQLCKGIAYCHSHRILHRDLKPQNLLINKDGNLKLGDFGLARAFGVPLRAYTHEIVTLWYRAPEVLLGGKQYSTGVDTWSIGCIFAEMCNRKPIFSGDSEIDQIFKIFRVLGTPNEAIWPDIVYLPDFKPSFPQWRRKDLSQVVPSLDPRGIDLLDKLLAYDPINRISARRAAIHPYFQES

Columns and labels:
Assay in all cases: anti-FLAG co-IP, LC-MS/MS
[1] = target: T1, Cks1 (Saccharomyces cerevisiae) (UniProt P20486)
T1 sequence (looked up): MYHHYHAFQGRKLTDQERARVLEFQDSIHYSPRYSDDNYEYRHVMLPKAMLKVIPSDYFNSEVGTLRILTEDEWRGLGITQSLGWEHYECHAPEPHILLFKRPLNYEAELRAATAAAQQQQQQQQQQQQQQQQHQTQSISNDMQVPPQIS

[2] = target: Cdc28 (Saccharomyces cerevisiae) (UniProt P00546)
[3] = target: T2, Fkh2 (Saccharomyces cerevisiae) (UniProt P41813)
T2 sequence (looked up): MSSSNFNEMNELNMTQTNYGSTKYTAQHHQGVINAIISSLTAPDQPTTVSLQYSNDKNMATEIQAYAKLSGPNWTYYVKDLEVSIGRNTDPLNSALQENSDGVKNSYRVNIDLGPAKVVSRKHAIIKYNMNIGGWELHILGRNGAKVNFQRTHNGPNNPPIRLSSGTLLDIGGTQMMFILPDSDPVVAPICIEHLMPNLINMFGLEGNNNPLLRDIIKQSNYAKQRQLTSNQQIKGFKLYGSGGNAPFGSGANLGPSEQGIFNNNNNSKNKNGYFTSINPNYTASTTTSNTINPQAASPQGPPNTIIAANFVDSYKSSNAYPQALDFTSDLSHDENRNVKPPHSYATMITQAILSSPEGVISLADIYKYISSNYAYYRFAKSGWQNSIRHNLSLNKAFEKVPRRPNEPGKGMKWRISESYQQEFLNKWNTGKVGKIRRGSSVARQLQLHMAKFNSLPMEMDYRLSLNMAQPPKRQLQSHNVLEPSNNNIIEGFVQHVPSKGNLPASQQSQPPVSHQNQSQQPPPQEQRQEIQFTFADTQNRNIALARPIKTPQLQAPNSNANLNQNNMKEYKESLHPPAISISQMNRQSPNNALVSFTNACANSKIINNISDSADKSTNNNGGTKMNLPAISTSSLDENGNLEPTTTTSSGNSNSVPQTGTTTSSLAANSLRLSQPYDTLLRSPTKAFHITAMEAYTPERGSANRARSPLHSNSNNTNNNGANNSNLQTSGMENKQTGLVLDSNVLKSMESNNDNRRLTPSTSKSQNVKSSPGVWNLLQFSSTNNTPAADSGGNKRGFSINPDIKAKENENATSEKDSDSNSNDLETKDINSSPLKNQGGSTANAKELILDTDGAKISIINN

[4] = target: T3, Fkh1 (Saccharomyces cerevisiae) (UniProt P40466)
T3 sequence (looked up): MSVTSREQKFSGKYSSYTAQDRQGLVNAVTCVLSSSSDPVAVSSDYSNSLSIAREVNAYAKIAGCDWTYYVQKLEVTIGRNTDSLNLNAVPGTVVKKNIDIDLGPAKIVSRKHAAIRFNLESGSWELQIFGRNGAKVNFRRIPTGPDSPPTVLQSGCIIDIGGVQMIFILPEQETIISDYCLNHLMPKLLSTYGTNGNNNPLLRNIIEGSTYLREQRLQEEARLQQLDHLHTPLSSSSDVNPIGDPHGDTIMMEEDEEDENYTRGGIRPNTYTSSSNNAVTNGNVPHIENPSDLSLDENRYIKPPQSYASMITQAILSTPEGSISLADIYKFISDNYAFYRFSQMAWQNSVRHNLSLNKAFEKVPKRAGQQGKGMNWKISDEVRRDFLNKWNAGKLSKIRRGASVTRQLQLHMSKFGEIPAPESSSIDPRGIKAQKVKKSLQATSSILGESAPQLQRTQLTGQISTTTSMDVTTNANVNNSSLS

[5] = target: T4, Clb3 (Saccharomyces cerevisiae) (UniProt P24870)
T4 sequence (looked up): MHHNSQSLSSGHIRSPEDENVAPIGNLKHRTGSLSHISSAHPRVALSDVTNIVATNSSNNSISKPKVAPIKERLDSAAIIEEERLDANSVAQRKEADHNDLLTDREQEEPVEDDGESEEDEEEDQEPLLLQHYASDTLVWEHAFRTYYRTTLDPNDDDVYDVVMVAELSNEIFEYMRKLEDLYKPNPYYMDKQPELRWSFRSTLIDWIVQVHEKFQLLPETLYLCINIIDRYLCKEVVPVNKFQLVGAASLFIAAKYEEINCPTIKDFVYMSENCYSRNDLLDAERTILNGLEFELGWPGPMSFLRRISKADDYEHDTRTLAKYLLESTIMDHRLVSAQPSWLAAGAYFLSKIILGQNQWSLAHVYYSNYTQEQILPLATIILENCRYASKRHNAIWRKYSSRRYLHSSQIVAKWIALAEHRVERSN

[6] = target: T5, Cln1 (Saccharomyces cerevisiae) (UniProt P20437)
T5 sequence (looked up): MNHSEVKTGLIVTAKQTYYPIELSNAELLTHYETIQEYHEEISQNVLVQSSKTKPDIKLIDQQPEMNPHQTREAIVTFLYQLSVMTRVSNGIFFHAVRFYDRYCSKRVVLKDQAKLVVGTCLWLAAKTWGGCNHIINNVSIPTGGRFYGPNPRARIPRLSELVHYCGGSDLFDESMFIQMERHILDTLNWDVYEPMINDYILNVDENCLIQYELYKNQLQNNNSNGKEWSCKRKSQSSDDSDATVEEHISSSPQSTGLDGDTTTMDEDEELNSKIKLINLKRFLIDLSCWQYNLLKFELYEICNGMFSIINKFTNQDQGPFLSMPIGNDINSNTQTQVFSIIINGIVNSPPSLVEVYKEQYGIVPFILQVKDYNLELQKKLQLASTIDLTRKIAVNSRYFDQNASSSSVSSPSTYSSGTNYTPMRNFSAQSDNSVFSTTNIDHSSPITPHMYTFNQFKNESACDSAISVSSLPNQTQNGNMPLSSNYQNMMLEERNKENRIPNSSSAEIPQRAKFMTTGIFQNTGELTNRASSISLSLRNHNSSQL

[7] = target: T6, Clb5 (Saccharomyces cerevisiae) (UniProt P30283)
T6 sequence (looked up): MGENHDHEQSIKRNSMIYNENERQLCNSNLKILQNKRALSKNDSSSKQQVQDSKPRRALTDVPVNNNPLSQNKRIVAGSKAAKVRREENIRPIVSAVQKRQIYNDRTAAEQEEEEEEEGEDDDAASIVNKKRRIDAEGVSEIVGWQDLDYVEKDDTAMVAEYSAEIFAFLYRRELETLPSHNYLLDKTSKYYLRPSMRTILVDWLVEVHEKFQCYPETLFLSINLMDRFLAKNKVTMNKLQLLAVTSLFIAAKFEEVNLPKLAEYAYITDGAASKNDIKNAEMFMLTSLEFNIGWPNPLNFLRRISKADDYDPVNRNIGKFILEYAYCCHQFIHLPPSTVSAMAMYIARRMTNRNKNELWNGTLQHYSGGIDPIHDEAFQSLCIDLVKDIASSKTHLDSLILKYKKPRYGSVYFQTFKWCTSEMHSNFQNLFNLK

[8] = target: T7, Clb2 (Saccharomyces cerevisiae) (UniProt P24869)
T7 sequence (looked up): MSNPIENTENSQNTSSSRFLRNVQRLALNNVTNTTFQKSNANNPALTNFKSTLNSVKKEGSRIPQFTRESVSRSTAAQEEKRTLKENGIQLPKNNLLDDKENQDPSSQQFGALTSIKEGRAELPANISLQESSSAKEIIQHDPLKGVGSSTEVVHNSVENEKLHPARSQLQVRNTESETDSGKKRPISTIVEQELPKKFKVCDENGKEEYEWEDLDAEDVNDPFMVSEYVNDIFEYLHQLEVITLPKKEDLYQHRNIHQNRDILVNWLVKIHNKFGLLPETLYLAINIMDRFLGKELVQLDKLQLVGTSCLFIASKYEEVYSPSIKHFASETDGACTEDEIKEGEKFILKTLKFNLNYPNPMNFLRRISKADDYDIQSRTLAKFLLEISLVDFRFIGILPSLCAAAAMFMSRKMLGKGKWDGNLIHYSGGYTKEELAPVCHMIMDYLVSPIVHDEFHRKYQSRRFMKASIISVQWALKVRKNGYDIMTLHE

Measured: binding

B1: Cln1 (protein, Saccharomyces cerevisiae, UniProt P20437 1-546, looked up)
chain: T5 sequence (looked up)
binds: [1] | [2]

B2: Fhl1 (protein, Saccharomyces cerevisiae, UniProt P39521 1-936, looked up)
chain: MDGEMAIIESSNHVGTSSPTTETQFTIDSSALKDQETKESITNSPTSEVPIETKLPKSSDIVTEEKHPQNTTTDIENEVENPVTDDNGNLKLELPDNLDNADFSKLLEFDAKNDEALFNSNELLSHTMDPVNNIDLTHDHSREVSSKEDINIEPVNPDEDEREKTQDNTAAVKTEGIRNSEDTSIQKDEPTADAIYTDVHKLSVNKDTETLPTLVDEKNNMLHMRNNSITPIMFQQHELVGQPPQNTVTENNSTDAETTQRKLSEPIDASLPLPNEQPTIFAYARLDFQSFTFYVQTLHAIIGRRSENDFSHKVDVNLGPSKSISRRHAQIFYNFGTGRFELSIIGKNGAFVDDIFVEKGNTVPLRNKTKIQIGQIPFQFILPEQERNDDSKSPENADIAESEINTRNLKKNEPKSKKKITTGAKPKKAQTKPAVKKEKKPPKIPKKVYTLEEIPVEYRTKPTVSYSAMLTTCIRKYSTAKGMSLSEIYAGIRELFPYYKYCPDGWQSSVRHNLSLNKSFRKVSKEGKGWLWGLDEEYIAERERQKKKQSEIAVAKAQAAQLKLEQQQHKLQQVPQRGKKDIVSQRSNVNARKQNISQTLAANRAASNRKNTASDNQRTMKYLQEQLVILTRDRKGLSKQVIAAILTQALAMTINQVTQAAKNKGITGNPLTALMDKNPQHLNLILAAAVNAATAKVTKGEVKQLVNPETTAAAALAAKAQHSKPIRQPIVQTPHVPDRPPSQLSASASSHPNNYLHDKQPGSFDPSSLSRFFQPRQNARATSSVAATSVPAAASQNVDAQPKPKPAQDNDLESESGTSSSSSSSSESGSESDSGSDDGSASGSGDNSSTSSESESESDSGSEVDEKNNKNEKIDSESIKNNESKDDIPSKDENSSNDNREISKTDEEGHDSKRRKVSEDINEGITEVNVSLEEKL
binds: [3] | [4]

B3: Cks1 (protein, Saccharomyces cerevisiae, UniProt P20486 1-150, looked up)
chain: T1 sequence (looked up)
binds: [5] | [6] | [2] | [7] | [8]
